Some of the results follow.
B1: il10ra_site1_normal_mot_HHH_b2_06864_af2_000000190_0001_1_20_H_._HHH_b2_08013_af2_0001_0000200015_0000001_0 (protein)
chain: SSSSQEAFEIAREAIERASELQRNGNPEEAEELLREAIREVEELGNQAAVFSLRHLLRLVSSSSS
B2: il10ra_site1_normal_mot_HHH_b1_06914_000000280_0001_1_18_H_._HHH_b1_02342_af2_0001_0000100001_0000001_0 (protein)
chain: SSSSSEDHEIYRLLREAAELEANGDPEKAREVLEEAEELAEELGNRNLLHVARFMLRALNSSSSS
B3: il10ra_site1_normal_mot_HHH_b2_02736_000000092_0001_22_38_H_._HHH_b1_08445_0001_0000500069_0000001_0 (protein)
chain: SSSSSQEVYELLRKAIELLREGNPEEAEKVLEEAEELAREENNEVLLYVIEFLDRDIKEQSSSSS
B4: il10ra_site1_sap_16_mot_HHH_b1_05052_000000015_0001_1_19_H_._HHH_b1_00808_af2_0001_0000100003_0000001_0_0001_af2pred_0001 (protein)
chain: SSSSSDEEEREVEEILREAEEIEDPEERSYALLRAYAVAYRVKDPELRKLVRRVARELISSSSSS
B5: il10ra_site1_normal_mot_HHH_b1_01821_000000158_0001_23_39_H_._HHH_b1_04578_0001_0000500034_0000001_1 (protein)
chain: SSSSSEFQRLAQRAVQLAFRLSDQEVLRRIWELFKRYIEEGDPRLEEELEELLEELEERGSSSSS
B6: il10ra_site1_sap_15_mot_47763b419dcba15278d0659274068abf_0001_af2_000000068_0001_35_48_H_._HHH_b2_05710_0001_0000300013_0000002_0_0001 (protein)
chain: SSSSSSDAEEEARELIEEAEQIEDERKAVEILAEAVRLAFEAGNAELLREIWRAIKELSSSSSSS
B7: il10ra_site1_normal_mot_HHH_b2_06795_000000133_0001_42_56_H_._HHH_b1_06187_0001_0000300027_0000002_0 (protein)
chain: SSSSDEEERVRQALRFAEALRKSGSPEAAESLLRFLLQTLKRLGDEELFEEVERLLEELRKSSSS
B8: il10ra_site1_normal_mot_HHH_b2_00984_000000042_0001_1_20_H_._HHH_b2_00283_af2_0002_0000500024_0000001_0 (protein)
chain: SSSSNEEIREALRLAAEASAFAIERSDPELLQELWELIKELAEKGDPELAEELAELAERILSSSS
B9: il10ra_site1_sap_13_mot_HHH_b2_00984_000000042_0001_1_20_H_._HHH_b2_01216_af2_0001_0000500012_0000001_1_0001 (protein)
chain: SSSSSSEAAREVAELLVEASRIEDPEERRKLLEEARRVAEEGNNQLLRWQVEWMEERLEKSSSSS
B10: il10ra_site1_sap_13_mot_HHH_b1_03327_000000294_0001_1_19_H_._HHH_b1_04707_0001_0000500018_0000002_0_0001 (protein)
chain: SSSSSQEELLKLLQEAFRLALRGNPEEAKEVLEEAREIAEELGDERALKMAEDLLRAIEGSSSSS
B11: il10ra_site1_sap_18_mot_05ca327611f5605f0dd8494b449afcbf_0001_1_000000248_0001_35_51_H_._HHH_b1_02758_0001_0000200015_0000001_0_0001 (protein)
chain: SSSSSEAEEYARLASRFARAMYEAGDPEAAQRLLKMMLDVLERLNDEEALEIIREVLEELSSSSS
B12: il10ra_site1_sap_23_mot_HHH_b2_02736_000000092_0001_22_38_H_._HHH_b2_03465_af2_0001_0000100001_0000001_0_0001_af2pred_0001 (protein)
chain: SSSSSEELQEVIRLSREAAELLSEGDEEKAQEVLEEALELAEEANNELAAFLVRSLLKRVSSSSS
B13: il10ra_site1_sap_17_mot_HHH_b1_03900_000000129_0001_1_16_H_._HHH_b1_06013_af2_0001_0000200008_0000001_0_0001 (protein)
chain: SSSSSDEQERLLELSKEAFRLALRGDPEEAQRVLEEAHELAEELGDERAAEMIRDLLKALSSSSS
B14: il10ra_site1_normal_mot_HHH_b1_03031_af2_000000117_0001_17_33_H_._HHH_b2_05648_af2_0001_0000200007_0000001_0_af2pred_0001 (protein)
chain: SSSSDLEEKIKEAEEEVKRLEEEGDEEEARKLILKILYLASRAGDRELAHRLLKLLAEIRSSSSS
B15: il10ra_site1_sap_16_mot_HHH_b1_06348_000000162_0001_1_15_H_._HHH_b2_06365_af2_0001_0000500005_0000001_0_0001 (protein)
chain: SSSSSDEKEELIRLALRLARAFIRGDEELIKELLEEVKKIAKELNDERMLKFLERLEKALSSSSS
B16: il10ra_site1_sap_15_mot_HHH_b1_05329_000000008_0001_43_56_H_._HHH_b2_00508_af2_0001_0000400016_0000001_0_0001 (protein)
chain: SSSSSDVEELLEEVEEAIEEGDLELALELLYEATHFALRAGDAELLHLVWRLVEELKERRSSSSS
B17: il10ra_site1_sap_16_mot_HHH_b2_00984_000000042_0001_1_20_H_._HHH_b1_03130_af2_0002_0000500031_0000001_0_0001 (protein)
chain: SSSSSLAENAHEFWKSLDEWAVRMGDPETVEKLVKHARIALERAGNPELVEELEKLHEELNSSSS
B18: il10ra_site1_normal_mot_HHH_b2_01310_000000089_0001_41_55_H_._HHH_b2_06195_0001_0000100002_0000002_0 (protein)
chain: SSSSSDEEVEELEEEIRRLLEEGNPKEAVRVLQELVRLAFELRDEEAFHLAIELARLIASSSSSS

Each binder was assayed against il10ra, Q13651 (assay: yeast display titration).
With B1 the “apparent Kd” value was “inactive: no binding seen”.
For B2, the “apparent Kd” value was “inactive: no binding seen”.
For B3, the “apparent Kd” value was “inactive: no binding seen”.
For B4, the “apparent Kd” value was “inactive: no binding seen”.
In the case of B5, the “apparent Kd” value is reported as “inactive: no binding seen”.
For B6, the “apparent Kd” value was “inactive: no binding seen”.
In the case of B7, the “apparent Kd” value is reported as “inactive: no binding seen”.
B8 was tested, and the “apparent Kd” value was “inactive: no binding seen”.
B9 was tested, and the “apparent Kd” value was “inactive: no binding seen”.
With B10 the “apparent Kd” value was “inactive: no binding seen”.
For B11, the “apparent Kd” value was “inactive: no binding seen”.
With B12 the “apparent Kd” value was “inactive: no binding seen”.
With B13 the “apparent Kd” value was “inactive: no binding seen”.
With B14 the “apparent Kd” value was “inactive: no binding seen”.
For B15, the “apparent Kd” value was “inactive: no binding seen”.
For B16, the “apparent Kd” value was “inactive: no binding seen”.
With B17 the “apparent Kd” value was “inactive: no binding seen”.
For B18, the “apparent Kd” value was “inactive: no binding seen”.

Reference: publication PMC10163288
